Data source: PubChem BioAssay AID686943 (Drosophila RNAi Screening Center, 2013)
Aim: 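Fly genes whose loss alters ERK activation after insulin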 (primary screen). Cells: Drosophila S2R+ haemocyte-like cells expressing YFP-tagged ERK (Rolled). Reagents: long dsRNA against Drosophila genes. Challenge: insulin stimulation versus unstimulated cells; dose and duration not given. Detection: 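Antibody staining for doubly phosphorylated ERK divided by ERK-YFP signal, as plate z-scores, in insulin-treated and untreated cells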. Scale: replicate 1, z-score of dpERK with insulin and replicate 2, z-score of dpERK with insulin: higher = more active ERK per ERK-YFP after insulin; replicate 1, z-score of dpERK under basal conditions: higher = more basal active ERK per ERK-YFP; replicate 1, z-score of ERK-YFP with insulin: higher = more YFP-tagged ERK signal.
The deposit covers about 23,000 reagents; shown is an unselected part of those with a known target gene and a result. 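Extra replicates exist only for a retested subset of genes; insulin dose and duration not given; both raised and lowered dpERK matter.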 Names joined by + are all predicted targets of the reagent. The record does not give: the amount of reagent, the time to read-out.

no.	predicted target	dsRNA	replicate 1, z-score of dpERK with insulin	replicate 2, z-score of dpERK with insulin	replicate 1, z-score of dpERK under basal conditions	replicate 1, z-score of ERK-YFP with insulin
1	CG5068	DRSC10476	-0.18	-0.36	-0.38	-0.29
2	levy	DRSC04289	-0.56	0.04	-0.17	1.43
3	pkaap	DRSC01925	0.11	0	1.57	-0.4
4	Obp56a	DRSC06085	0.75	1.57	-0.17	-2.07
5	Brd8	DRSC14866	-0.23	-1.52	0.08	0.29
6	CG16837	DRSC04283	-0.28	0.26	-0.01	0.13
7	Spn42Db	DRSC05009	-0.05	-0.76	-0.37	-0.12
8	Os-C	DRSC16778	0.27	1.13	-0.09	0.43
9	CG32225	DRSC09657	0.78	0.8	0.65	0.67
10	CG9410 + CG15908	DRSC04976	0.63	-0.23	0.29	-1.92
11	CG9410 + CG15908	DRSC05001	0.25	0.41	0.1	0.63
12	CG5050	DRSC02807	0.43	0.04	-0.08	0.24
13	Dpy-30L2	DRSC08205	0.16	0.49	-0.1	0.38
14	GstD4	DRSC16685	0.95	0.24	0.78	-0.38
15	CG30460	DRSC06559	0.58	-0.2	-0.23	-0.02
16	CG30460	DRSC06560	-4.25	-3.49	-2.47	-2.03
17	SMC5	DRSC11849	0.65	0.52	0.35	0.18
18	CG15387	DRSC00401	0.15	-0.03	-0.54	0.38
19	Ggamma30A	DRSC02715	0.34	0.48	0.6	0.43
20	Ggamma30A	DRSC03331	-0.06	0.68	1.21	-0.2
21	Eip78C	DRSC11864	-3.23	-2.46	-1.77	-2.09
22	CG14644	DRSC12230	0.35	1.16	0.51	-1.09
23	Fili	DRSC03907	0.17	-0.1	-0.41	-0.28
24	Fili	DRSC04132	0.59	0.16	0.31	0.98
25	Fili	DRSC04445	-0.12	0.61	1.04	0.39
26	Su(var)3-7	DRSC16872	0.39	0.3	1.01	-0.63
27	CG13579	DRSC04215	0.14	1.38	0.8	0.61
28	Spx	DRSC18720	0.11	0.24	-2.25	-3.56
29	clt	DRSC04621	0.32	0.94	0.08	0.59
30	lolal	DRSC06948	-1.82	-0.18	0.51	0.19
31	Pepck2	DRSC06013	1	-1.02	-0.89	-0.6
32	syd	DRSC10963	0.03	0.29	1.23	0.47
33	CG12164	DRSC06115	0.47	0.14	0.34	0
34	CG12164	DRSC21777	0.19	0.32	0.46	-0.5
35	Golgin97	DRSC06895	0.07	0.31	0.26	-0.41
36	CG10338	DRSC02039	0.61	0.88	1.47	-0.38
37	gce	DRSC19613	0.26	-0.77	-0.4	0.26
38	gce	DRSC19974	0.78	1.09	1.85	-0.83
39	LKRSDH	DRSC03015	0.34	0.42	-0.07	-0.39
40	CG13058	DRSC09941	0.39	0.21	0.77	0.39
41	CG15262	DRSC01975	-0.4	-0.18	0.26	-0.53
42	CG14456	DRSC11713	0.22	0.33	-0.62	-0.11
43	CG42445	DRSC10858	0.28	0.41	-0.2	-0.05
44	CG42262 (retired record)	DRSC17628	-0.22	0.08	0.27	0.28
45	CG42262 (retired record)	DRSC17974	1.04	0.79	0.53	0.89
46	Gle1	DRSC06485	-0.11	-0.69	-0.02	0.29
47	Mrm2	DRSC14310	-0.03	-0.48	-0.93	0.12
48	Set8	DRSC15473	0.58	-0.41	0.33	1.23
49	Xe7	DRSC12307	-0.78	-1.15	-1.44	2.36
50	CG13055	DRSC09936	-0.21	0.16	-0.01	-0.65
51	stet	DRSC08246	0.39	0.42	-0.69	-0.34
52	stet	DRSC08283	1.78	1.29	0.05	-0.29
53	hh	DRSC16965	2.38	0.02	0.1	-0.3
54	CG14316	DRSC14795	0.09	0.39	0.39	-0.35
55	CG13085	DRSC02189	0.11	0.57	-0.31	-0.17
56	CG10510	DRSC11614	-0.04	-0.43	2.32	-0.89
57	Scm	DRSC16853	0.07	-0.64	-0.28	-0.6

Records listed so far whose gene name begins with O or o:
predicted target	dsRNA	replicate 1, z-score of dpERK with insulin	replicate 2, z-score of dpERK with insulin	replicate 1, z-score of dpERK under basal conditions	replicate 1, z-score of ERK-YFP with insulin
Obp56a	DRSC06085	0.75	1.57	-0.17	-2.07
Os-C	DRSC16778	0.27	1.13	-0.09	0.43
